Laboratory results as given in paper doi:10.1101/2022.03.22.485398.
These are yes or no findings as the source states them, for the method shown. Binding seen in cells or lysates may run through a third protein. Some results given as binding are weak or reduced against the parent protein; the word gives no strength. Sequences can lack the tags named with a protein.

Molecular target: T1, 9B:nLUC (pro35S::9B:nLUC) (Arabidopsis) (UniProt Q9SL49)
T1 sequence: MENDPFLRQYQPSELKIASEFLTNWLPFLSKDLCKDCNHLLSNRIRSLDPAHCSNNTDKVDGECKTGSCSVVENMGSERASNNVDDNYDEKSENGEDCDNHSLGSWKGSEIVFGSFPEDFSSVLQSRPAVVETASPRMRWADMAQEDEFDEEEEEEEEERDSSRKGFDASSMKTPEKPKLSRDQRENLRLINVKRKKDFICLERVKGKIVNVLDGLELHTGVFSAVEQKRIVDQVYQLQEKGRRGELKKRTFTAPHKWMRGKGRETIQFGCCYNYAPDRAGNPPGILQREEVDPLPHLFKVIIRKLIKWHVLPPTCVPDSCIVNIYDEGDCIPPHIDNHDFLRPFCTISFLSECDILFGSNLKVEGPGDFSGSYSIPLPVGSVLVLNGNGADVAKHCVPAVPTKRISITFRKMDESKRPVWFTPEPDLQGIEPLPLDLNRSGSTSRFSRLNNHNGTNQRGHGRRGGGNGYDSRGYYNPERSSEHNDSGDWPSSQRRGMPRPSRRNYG
Assay: split reporter

binding: binds
B1: cLUC:ECT2 (pro35S::cLUC:ECT2) (protein, UniProt Q9LJE5 1-667)
chain: MATVAPPADQATDLLQKLSLDSPAKASEIPEPNKKTAVYQYGGVDVHGQVPSYDRSLTPMLPSDAADPSVCYVPNPYNPYQYYNVYGSGQEWTDYPAYTNPEGVDMNSGIYGENGTVVYPQGYGYAAYPYSPATSPAPQLGGEGQLYGAQQYQYPNYFPNSGPYASSVATPTQPDLSANKPAGVKTLPADSNNVASAAGITKGSNGSAPVKPTNQATLNTSSNLYGMGAPGGGLAAGYQDPRYAYEGYYAPVPWHDGSKYSDVQRPVSGSGVASSYSKSSTVPSSRNQNYRSNSHYTSVHQPSSVTGYGTAQGYYNRMYQNKLYGQYGSTGRSALGYGSSGYDSRTNGRGWAATDNKYRSWGRGNSYYYGNENNVDGLNELNRGPRAKGTKNQKGNLDDSLEVKEQTGESNVTEVGEADNTCVVPDREQYNKEDFPVDYANAMFFIIKSYSEDDVHKSIKYNVWASTPNGNKKLAAAYQEAQQKAGGCPIFLFFSVNASGQFVGLAEMTGPVDFNTNVEYWQQDKWTGSFPLKWHIVKDVPNSLLKHITLENNENKPVTNSRDTQEVKLEQGLKIVKIFKEHSSKTCILDDFSFYEVRQKTILEKKAKQTQKQVSEEKVTDEKKESATAESASKESPAAVQTSSDVKVAENGSVAKPVTGDVVANGC
